Assay results reported in the supplement of paper PMC7666118.
This is one part of the list.

By UniProt entry, the sequences of proteins in these tests, tags left out. Where a name states a change or a piece, a line headed by the entry shows the natural chain unless it says otherwise.
UniProt Q8IYL2: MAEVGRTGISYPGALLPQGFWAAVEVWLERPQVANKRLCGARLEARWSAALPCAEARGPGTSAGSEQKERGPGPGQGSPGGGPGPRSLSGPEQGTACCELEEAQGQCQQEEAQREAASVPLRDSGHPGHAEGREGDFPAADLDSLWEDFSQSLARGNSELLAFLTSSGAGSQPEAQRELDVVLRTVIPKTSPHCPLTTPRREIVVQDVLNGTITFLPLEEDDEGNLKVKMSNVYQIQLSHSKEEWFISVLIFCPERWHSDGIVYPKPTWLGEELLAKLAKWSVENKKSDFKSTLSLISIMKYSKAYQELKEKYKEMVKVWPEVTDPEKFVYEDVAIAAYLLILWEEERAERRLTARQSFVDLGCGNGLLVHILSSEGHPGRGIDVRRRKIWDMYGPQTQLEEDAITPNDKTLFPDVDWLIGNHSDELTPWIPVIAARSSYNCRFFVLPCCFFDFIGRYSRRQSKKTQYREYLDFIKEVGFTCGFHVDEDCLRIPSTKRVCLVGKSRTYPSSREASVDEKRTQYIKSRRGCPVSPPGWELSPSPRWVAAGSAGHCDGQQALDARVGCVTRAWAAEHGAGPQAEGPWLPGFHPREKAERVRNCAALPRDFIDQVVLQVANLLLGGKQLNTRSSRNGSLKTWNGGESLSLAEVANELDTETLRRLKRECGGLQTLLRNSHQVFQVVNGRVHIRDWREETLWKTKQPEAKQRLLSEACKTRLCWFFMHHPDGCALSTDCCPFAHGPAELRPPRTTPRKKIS
UniProt Q9Y6W3: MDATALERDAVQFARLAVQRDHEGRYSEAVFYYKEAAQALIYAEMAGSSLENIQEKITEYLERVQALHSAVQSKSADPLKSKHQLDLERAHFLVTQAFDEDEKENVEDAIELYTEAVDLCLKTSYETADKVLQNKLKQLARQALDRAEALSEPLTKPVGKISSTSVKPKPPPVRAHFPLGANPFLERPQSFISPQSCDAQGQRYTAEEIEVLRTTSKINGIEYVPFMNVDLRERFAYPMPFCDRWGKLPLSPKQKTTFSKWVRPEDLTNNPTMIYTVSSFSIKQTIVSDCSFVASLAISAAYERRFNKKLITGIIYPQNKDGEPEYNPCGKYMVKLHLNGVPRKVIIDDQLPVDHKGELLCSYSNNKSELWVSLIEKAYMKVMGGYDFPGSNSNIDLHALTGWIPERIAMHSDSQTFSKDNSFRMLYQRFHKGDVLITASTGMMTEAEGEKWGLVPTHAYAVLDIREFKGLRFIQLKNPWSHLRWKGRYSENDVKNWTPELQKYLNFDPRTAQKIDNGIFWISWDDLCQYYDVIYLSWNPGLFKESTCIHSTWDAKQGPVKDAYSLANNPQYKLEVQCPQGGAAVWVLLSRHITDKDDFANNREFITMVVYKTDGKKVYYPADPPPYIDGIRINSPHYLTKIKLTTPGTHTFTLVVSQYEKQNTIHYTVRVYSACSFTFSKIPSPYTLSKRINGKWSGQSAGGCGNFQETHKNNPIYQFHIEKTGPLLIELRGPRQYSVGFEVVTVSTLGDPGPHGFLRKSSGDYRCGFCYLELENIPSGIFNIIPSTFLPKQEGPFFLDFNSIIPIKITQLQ
UniProt Q49AR2: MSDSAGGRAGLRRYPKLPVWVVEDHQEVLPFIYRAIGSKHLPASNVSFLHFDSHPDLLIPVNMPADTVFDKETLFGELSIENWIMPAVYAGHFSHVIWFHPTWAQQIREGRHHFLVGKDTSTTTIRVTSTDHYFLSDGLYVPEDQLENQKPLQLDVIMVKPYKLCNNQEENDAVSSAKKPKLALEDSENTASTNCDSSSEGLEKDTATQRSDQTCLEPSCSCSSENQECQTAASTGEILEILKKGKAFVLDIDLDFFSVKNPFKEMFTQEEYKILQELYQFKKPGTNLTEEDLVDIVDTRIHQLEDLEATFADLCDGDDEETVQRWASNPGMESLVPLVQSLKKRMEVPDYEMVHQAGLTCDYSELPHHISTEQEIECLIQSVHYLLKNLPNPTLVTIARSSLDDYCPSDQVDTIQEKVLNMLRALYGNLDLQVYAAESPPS
UniProt Q9BVC5: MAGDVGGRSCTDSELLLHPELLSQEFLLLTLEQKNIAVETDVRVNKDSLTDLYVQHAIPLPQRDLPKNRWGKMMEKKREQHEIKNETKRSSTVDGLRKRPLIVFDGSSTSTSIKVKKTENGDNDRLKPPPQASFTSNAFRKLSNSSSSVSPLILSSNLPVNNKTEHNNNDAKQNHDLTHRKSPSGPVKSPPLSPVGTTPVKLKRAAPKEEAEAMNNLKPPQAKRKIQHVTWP
UniProt Q7L5D6: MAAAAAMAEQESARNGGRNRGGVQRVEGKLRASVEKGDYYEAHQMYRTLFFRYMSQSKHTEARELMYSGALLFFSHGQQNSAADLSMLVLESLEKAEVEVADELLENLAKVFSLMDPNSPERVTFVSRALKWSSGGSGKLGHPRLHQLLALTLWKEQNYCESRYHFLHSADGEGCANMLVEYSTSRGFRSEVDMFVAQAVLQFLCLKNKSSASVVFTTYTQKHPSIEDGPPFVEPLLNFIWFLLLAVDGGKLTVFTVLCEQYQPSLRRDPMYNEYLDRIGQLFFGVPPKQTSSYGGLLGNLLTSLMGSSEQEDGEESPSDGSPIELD
UniProt P35520: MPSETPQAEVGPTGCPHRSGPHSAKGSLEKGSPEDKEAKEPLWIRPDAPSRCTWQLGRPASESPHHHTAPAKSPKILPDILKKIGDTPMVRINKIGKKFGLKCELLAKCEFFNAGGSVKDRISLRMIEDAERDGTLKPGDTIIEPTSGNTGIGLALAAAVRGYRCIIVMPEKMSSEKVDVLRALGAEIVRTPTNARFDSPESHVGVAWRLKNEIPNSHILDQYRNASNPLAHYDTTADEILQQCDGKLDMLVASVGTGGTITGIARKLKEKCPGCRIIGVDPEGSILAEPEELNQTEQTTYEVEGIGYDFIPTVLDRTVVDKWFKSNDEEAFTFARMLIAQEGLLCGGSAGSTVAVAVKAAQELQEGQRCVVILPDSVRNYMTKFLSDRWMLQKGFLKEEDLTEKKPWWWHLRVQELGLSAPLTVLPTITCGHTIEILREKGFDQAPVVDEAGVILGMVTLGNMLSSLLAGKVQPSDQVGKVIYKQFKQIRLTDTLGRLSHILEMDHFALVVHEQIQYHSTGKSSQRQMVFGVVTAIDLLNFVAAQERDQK
UniProt Q32NC0: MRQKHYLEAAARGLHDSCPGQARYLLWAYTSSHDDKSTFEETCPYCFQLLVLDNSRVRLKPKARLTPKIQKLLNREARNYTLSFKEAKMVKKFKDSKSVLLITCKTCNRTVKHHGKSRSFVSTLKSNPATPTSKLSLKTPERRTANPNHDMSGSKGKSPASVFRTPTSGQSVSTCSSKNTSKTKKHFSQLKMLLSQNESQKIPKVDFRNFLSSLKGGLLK
UniProt P55212: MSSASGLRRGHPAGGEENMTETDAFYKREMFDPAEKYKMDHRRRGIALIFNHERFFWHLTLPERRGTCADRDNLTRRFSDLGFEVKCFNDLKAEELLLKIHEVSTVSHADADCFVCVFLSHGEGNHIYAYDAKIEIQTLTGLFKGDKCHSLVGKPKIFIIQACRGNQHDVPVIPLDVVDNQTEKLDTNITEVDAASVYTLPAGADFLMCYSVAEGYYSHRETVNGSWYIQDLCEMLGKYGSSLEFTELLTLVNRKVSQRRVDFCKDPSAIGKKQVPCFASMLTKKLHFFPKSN
UniProt Q8NAT1: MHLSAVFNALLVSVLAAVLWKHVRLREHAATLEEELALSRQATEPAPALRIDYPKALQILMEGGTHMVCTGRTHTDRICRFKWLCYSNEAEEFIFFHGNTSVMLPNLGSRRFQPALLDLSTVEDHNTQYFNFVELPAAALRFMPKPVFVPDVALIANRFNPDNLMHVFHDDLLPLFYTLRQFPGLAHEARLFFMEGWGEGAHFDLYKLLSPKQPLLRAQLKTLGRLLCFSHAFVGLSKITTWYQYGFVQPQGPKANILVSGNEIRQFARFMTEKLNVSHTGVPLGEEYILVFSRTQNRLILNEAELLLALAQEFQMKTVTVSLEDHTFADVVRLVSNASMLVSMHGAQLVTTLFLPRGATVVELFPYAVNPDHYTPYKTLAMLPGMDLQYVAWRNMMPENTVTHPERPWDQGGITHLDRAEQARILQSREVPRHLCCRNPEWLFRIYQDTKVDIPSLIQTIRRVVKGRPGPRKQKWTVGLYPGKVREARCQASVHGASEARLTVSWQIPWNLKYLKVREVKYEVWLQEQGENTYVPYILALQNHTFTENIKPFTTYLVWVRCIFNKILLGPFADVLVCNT
UniProt Q5NDL2: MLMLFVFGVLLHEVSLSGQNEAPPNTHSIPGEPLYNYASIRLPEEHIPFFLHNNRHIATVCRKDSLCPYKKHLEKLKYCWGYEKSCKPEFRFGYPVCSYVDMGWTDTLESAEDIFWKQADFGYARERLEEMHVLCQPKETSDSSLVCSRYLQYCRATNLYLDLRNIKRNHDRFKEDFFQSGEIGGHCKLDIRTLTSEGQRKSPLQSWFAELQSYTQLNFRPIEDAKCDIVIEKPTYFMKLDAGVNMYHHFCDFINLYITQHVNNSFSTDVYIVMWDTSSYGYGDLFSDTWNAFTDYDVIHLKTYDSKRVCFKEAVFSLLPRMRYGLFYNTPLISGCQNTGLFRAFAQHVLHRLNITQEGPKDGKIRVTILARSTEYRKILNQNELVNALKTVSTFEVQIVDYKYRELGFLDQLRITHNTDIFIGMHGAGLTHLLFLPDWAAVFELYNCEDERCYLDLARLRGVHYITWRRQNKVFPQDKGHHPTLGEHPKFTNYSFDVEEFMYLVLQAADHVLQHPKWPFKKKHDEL
UniProt Q9H257: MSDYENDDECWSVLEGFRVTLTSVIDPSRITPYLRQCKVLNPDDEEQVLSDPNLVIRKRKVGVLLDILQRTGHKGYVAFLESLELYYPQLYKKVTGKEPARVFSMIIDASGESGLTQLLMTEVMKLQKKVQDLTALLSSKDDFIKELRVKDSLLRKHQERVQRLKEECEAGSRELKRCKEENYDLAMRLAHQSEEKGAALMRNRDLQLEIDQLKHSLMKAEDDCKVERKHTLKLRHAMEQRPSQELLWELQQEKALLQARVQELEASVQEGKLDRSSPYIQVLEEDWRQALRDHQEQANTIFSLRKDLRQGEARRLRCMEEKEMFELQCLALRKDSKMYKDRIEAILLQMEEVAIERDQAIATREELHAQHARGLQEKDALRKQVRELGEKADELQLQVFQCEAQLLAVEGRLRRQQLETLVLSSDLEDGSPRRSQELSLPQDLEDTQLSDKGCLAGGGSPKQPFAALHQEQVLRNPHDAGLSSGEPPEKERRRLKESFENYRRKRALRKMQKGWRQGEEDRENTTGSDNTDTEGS
UniProt Q96FZ2: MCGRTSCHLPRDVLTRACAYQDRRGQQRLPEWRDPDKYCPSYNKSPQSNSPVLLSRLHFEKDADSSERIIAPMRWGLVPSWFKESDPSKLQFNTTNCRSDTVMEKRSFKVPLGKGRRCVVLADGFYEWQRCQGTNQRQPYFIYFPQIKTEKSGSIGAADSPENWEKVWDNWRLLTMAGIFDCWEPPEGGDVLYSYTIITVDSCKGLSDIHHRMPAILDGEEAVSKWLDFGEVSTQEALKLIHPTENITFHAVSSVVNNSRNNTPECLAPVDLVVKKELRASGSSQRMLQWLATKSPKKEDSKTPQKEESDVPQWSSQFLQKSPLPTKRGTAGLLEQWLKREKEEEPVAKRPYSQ
UniProt P86791: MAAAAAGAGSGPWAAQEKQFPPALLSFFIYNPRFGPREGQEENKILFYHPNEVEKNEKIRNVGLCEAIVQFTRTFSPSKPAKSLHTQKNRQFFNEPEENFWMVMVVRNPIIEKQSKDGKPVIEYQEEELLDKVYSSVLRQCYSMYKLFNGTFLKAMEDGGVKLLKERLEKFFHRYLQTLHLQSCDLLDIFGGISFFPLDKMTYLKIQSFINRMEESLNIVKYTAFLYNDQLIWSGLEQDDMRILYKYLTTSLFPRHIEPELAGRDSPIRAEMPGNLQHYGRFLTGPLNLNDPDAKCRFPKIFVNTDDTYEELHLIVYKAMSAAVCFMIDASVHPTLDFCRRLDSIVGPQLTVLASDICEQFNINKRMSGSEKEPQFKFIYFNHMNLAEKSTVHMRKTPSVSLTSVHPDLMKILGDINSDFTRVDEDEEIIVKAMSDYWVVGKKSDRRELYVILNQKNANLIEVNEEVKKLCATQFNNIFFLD
UniProt Q01518, whole entry: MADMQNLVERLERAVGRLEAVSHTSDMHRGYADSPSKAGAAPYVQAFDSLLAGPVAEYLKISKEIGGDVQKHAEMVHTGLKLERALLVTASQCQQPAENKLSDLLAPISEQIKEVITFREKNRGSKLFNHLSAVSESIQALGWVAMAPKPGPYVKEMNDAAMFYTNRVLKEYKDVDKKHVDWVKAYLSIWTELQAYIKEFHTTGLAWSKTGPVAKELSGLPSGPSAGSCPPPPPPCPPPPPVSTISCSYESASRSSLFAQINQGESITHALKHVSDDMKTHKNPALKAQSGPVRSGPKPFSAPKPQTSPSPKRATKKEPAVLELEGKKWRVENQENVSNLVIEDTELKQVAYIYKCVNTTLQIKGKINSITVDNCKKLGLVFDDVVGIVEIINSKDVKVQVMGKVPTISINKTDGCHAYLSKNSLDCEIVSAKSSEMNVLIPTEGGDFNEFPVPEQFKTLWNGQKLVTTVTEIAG

compound: COc1ccc(Cn2ccc3ccc(C(=O)NO)cc32)cc1; test: dose-dependent thermal stabilisation call (2D-TPP, DLPTP, 10% FDR) (binary (1 = stabilised)); higher = stabilised by the compound; conditions: system: HL-60 intact cells; concentration range 0.04-10 µM

Row | Target | dose-dependent thermal stabilisation call
1 | C9ORF86 (UniProt Q3YEC7) | inactive: 0
2 | C14ORF21 (UniProt Q86U38) | inactive: 0
3 | CAMLG (UniProt P49069) | inactive: 0
4 | C4ORF23 (UniProt Q8IYL2) | inactive: 0
5 | C14ORF179 (UniProt Q96FT9) | inactive: 0
6 | C1ORF163 (UniProt Q96BR5) | inactive: 0
7 | C1ORF55 (UniProt Q6IQ49) | inactive: 0
8 | C9ORF91 (UniProt Q5VZI3) | inactive: 0
9 | CALCOCO1 (UniProt Q9P1Z2) | inactive: 0
10 | CAPN7 (UniProt Q9Y6W3) | inactive: 0
11 | CARS (UniProt P49589) | inactive: 0
12 | C20ORF72 (UniProt Q9BQP7) | inactive: 0
13 | C5ORF22 (UniProt Q49AR2) | inactive: 0
14 | C2ORF49 (UniProt Q9BVC5) | inactive: 0
15 | C3ORF60 (UniProt Q9BU61) | inactive: 0
16 | C2ORF34 (UniProt Q7Z624) | inactive: 0
17 | C14ORF80 (UniProt Q86SX3) | inactive: 0
18 | C6ORF153 (UniProt Q96EU6) | inactive: 0
19 | C1ORF212 (UniProt Q96EX1) | inactive: 0

Some of the entries above in another layout:

| Row | Target | dose-dependent thermal stabilisation call |
| --- | --- | --- |
| 12 | C20ORF72 (UniProt Q9BQP7) | inactive: 0 |
| 13 | C5ORF22 (UniProt Q49AR2) | inactive: 0 |

Next results.

Row | Target | dose-dependent thermal stabilisation call
20 | C20ORF27 (UniProt Q9GZN8) | inactive: 0
21 | CASP1 (UniProt P29466) | inactive: 0
22 | C7ORF20 (UniProt Q7L5D6) | inactive: 0
23 | C4ORF32 (UniProt Q8N8J7) | inactive: 0
24 | CAMKK1 (UniProt Q8N5S9) | inactive: 0
25 | CAPZB (UniProt P47756) | inactive: 0
26 | CBS (UniProt P35520) | inactive: 0
27 | C18ORF21 (UniProt Q32NC0) | inactive: 0
28 | CASP6 (UniProt P55212) | inactive: 0
29 | C3ORF39 (UniProt Q8NAT1) | inactive: 0
30 | C3ORF64 (UniProt Q5NDL2) | inactive: 0
31 | CARD9 (UniProt Q9H257) | inactive: 0
32 | C3ORF37 (UniProt Q96FZ2) | inactive: 0
33 | C8ORF55 (UniProt Q8WUY1) | inactive: 0
34 | C7ORF28A (UniProt P86791) | inactive: 0
35 | CARHSP1 (UniProt Q9Y2V2) | inactive: 0
36 | C14ORF166 (UniProt Q9Y224) | inactive: 0
37 | CAP1 (UniProt Q01518) | inactive: 0
